According to PubChem BioAssay AID248 (DTP/NCI, 2004):
The list does not hold the whole screen: it gathers tests that were run many times, whatever their T/C, doses with no T/C, and many T/C values between a quarter and a half above the control. Other doses and runs of a compound stand elsewhere. T/C is the treated group as % of the vehicle group. Some entries give survivors of the animals treated and no T/C: the source holds a T/C of zero for them, seemingly a mark for toxic or unscored doses. Some doses without a T/C left all or most animals alive at the check, yet need not have been tolerated: survival well below the control is almost never listed, so the zero probably covers shortened survival too. Counts of survivors are from the toxicity check (mostly the fifth day) where no day follows; animals may have died later. Schedule codes are those of the source, read here as Q, the interval in days (D) or hours (H), X, the number of doses. Some entries were tested several times; the values are given in rising order. Some schedule codes hold Z or #, which are not explained here. For survival time, this PubChem deposit counts one and a half times the control or more as active, and values a quarter to a half above the control carry no call in these data; other NCI protocols may use other cut-offs. Some T/C values are followed by the survivors on the day toxicity was checked, most often the fifth; where none is given, no animal had died by that day.

Test system: L1210 leukemia ip in BDF1 mice, survival T/C
Test: NCI In Vivo Anticancer Drug Screen. Data for tumor model L1210 Leukemia (intraperitoneal) in B6D2F1 (BDF1) mice
Conditions: higher T/C = longer survival
[1] = T/C endpoint: mean survival time, dose: 50.0 mg/kg/injection, schedule: Q04DX003 (ip), vehicle: saline
[2] = T/C endpoint: mean survival time, dose: 200.0 mg/kg/injection, schedule: Q01DX009 (ip), vehicle: saline with Tween-80
[3] = T/C endpoint: mean survival time, dose: 400.0 mg/kg/injection, schedule: Q01DX009 (ip), vehicle: saline with Tween-80
[4] = T/C endpoint: mean survival time, dose: 100.0 mg/kg/injection, schedule: Q04DX002 (ip), vehicle: saline
[5] = T/C endpoint: mean survival time, dose: 400.0 mg/kg/injection, schedule: Q01DX001 (ip), vehicle: saline
[6] = T/C endpoint: mean survival time, dose: 50.0 mg/kg/injection, schedule: Q01DX009 (ip), vehicle: Klucel (hydroxypropylcellulose) (HPC)
[7] = T/C endpoint: mean survival time, dose: 200.0 mg/kg/injection, schedule: Q01DX009 (ip), vehicle: saline
[8] = T/C endpoint: mean survival time, dose: 400.0 mg/kg/injection, schedule: Q01DX009 (ip), vehicle: saline
[9] = T/C endpoint: mean survival time, dose: 400.0 mg/kg/injection, schedule: Q04DX002 (ip), vehicle: Klucel (hydroxypropylcellulose) (HPC)
[10] = T/C endpoint: mean survival time, dose: 100.0 mg/kg/injection, schedule: Q01DX009 (ip), vehicle: saline with Tween-80
[11] = T/C endpoint: mean survival time, dose: 400.0 mg/kg/injection, schedule: Q01DX001 (ip), vehicle: carboxymethylcellulose (CMC)
[12] = T/C endpoint: mean survival time, dose: 200.0 mg/kg/injection, schedule: Q04DX003 (ip), vehicle: saline with Tween-80
[13] = T/C endpoint: mean survival time, dose: 400.0 mg/kg/injection, schedule: Q04DX003 (ip), vehicle: saline with Tween-80
[14] = T/C endpoint: mean survival time, dose: 100.0 mg/kg/injection, schedule: Q04DX003 (ip), vehicle: saline
[15] = T/C endpoint: mean survival time, dose: 200.0 mg/kg/injection, schedule: Q04DX003 (ip), vehicle: saline
[16] = T/C endpoint: mean survival time, dose: 400.0 mg/kg/injection, schedule: Q04DX003 (ip), vehicle: saline

With NC(CC(=O)CCl)C(=O)O (stereo not drawn) the T/C (T/C endpoint: mean survival time, dose: 14.7 mg/kg/injection, schedule: Q04DX003 (ip), vehicle: saline) was 136 % of control, the T/C (T/C endpoint: mean survival time, dose: 18.8 mg/kg/injection, schedule: Q01DX009 (ip), vehicle: carboxymethylcellulose (CMC)) was 125 % of control and the T/C (T/C endpoint: mean survival time, dose: 33.0 mg/kg/injection, schedule: Q04DX003 (ip), vehicle: saline) was 136 % of control. The T/C (T/C endpoint: mean survival time, dose: 37.5 mg/kg/injection, schedule: Q01DX009 (ip), vehicle: carboxymethylcellulose (CMC)) was 132 % of control, the T/C (T/C endpoint: mean survival time, dose: 37.5 mg/kg/injection, schedule: Q01DX009 (ip), vehicle: saline) was 138 % of control and the survivor count [1] was 6 of 6. For the same compound, the survivor count (T/C endpoint: mean survival time, dose: 75.0 mg/kg/injection, schedule: Q01DX009 (ip), vehicle: saline) was 0 of 6 and the survivor count (T/C endpoint: mean survival time, dose: 300.0 mg/kg/injection, schedule: Q01DX001 (ip), vehicle: carboxymethylcellulose (CMC)) was 0 of 6.
With Cc1ccc(N=C=S)cc1F the survivor count (T/C endpoint: mean survival time, dose: 150.0 mg/kg/injection, schedule: Q01DX001 (ip), vehicle: other) was 2 of 6 and the survivor count (T/C endpoint: mean survival time, dose: 300.0 mg/kg/injection, schedule: Q01DX001 (ip), vehicle: other) was 0 of 6.
Cl/C(=C\c1ccccc1)c1ccccc1 was tested, and the survivor count (T/C endpoint: mean survival time, dose: 100.0 mg/kg/injection, schedule: Q04DX003 (ip), vehicle: Klucel (hydroxypropylcellulose) (HPC)) was 0 of 6 and the survivor count (T/C endpoint: mean survival time, dose: 200.0 mg/kg/injection, schedule: Q04DX003 (ip), vehicle: Klucel (hydroxypropylcellulose) (HPC)) was 2 of 6.
In the case of COc1cccc2c(=O)c(COC(C)=O)c(C)[nH]c12, the survivor count [2] is reported as 6 of 6 and the survivor count [3] is reported as 6 of 6.
With CCN(CC)CCOc1ccc(N=N/C(C(C)=O)=C(\C)O)cc1 the T/C [4] was 87, 93, 101 % of control, the survivor count [4] was 6 of 6 and the survivor count (T/C endpoint: mean survival time, dose: 200.0 mg/kg/injection, schedule: Q04DX002 (ip), vehicle: saline) was 0 of 3 and 0 of 6. For the same compound, the survivor count (T/C endpoint: mean survival time, dose: 400.0 mg/kg/injection, schedule: Q04DX002 (ip), vehicle: saline) was 0 of 3 and 1 of 6.
CCCCCN(CCCCC)CC(O)C1c2ccccc2Cc2ccccc21 (stereo not drawn) was tested, and the survivor count (T/C endpoint: mean survival time, dose: 80.0 mg/kg/injection, schedule: Q01DX001 (ip), vehicle: saline) was 2 of 4, the survivor count (T/C endpoint: mean survival time, dose: 200.0 mg/kg/injection, schedule: Q01DX001 (ip), vehicle: saline) was 0 of 4 and the survivor count [5] was 0 of 4.
For O=S1CCOCC1.O=S1CCOCC1.O=S1CCOCC1.O=S1CCOCC1.O=S1CCOCC1.O=S1CCOCC1.[Hg+2].[O-][Cl+3]([O-])([O-])O, the survivor count (T/C endpoint: mean survival time, dose: 12.0 mg/kg/injection, schedule: Q01DX009 (ip), vehicle: Klucel (hydroxypropylcellulose) (HPC)) was 5 of 6, the survivor count (T/C endpoint: mean survival time, dose: 25.0 mg/kg/injection, schedule: Q01DX009 (ip), vehicle: Klucel (hydroxypropylcellulose) (HPC)) was 3 of 6 and the survivor count [6] was 0 of 6. The survivor count (T/C endpoint: mean survival time, dose: 100.0 mg/kg/injection, schedule: Q01DX009 (ip), vehicle: saline) was 0 of 6, the survivor count [7] was 0 of 6 and the survivor count [8] was 0 of 6.
Cc1ccc(Cl)cc1NC(=O)C(Br)C(Br)C(=O)O (stereo not drawn) was tested, and the survivor count (T/C endpoint: mean survival time, dose: 400.0 mg/kg/injection, schedule: Q01DX009 (ip), vehicle: Klucel (hydroxypropylcellulose) (HPC)) was 0 of 6.
With CCC1CN2CCc3cc(OC)c(OC)cc3C2CC1=O (stereo not drawn) the T/C [2] was 128 % of control [5 of 6 alive], the T/C [3] was 134 % of control [4 of 6 alive] and the survivor count [3] was 3 of 6.
Nc1nc2nc[nH]c2c(N)c1Br (tested in a mixture with another compound) was tested, and the survivor count [5] was 3 of 6.
For O=C(Nc1cccc2ccccc12)Oc1ccc(Cl)cc1Cc1ccccc1, the survivor count [9] was 3 of 3.
In the case of Cc1ccc2c(c1)P(=O)(O)c1cc(Cl)ccc1O2, the survivor count (T/C endpoint: median survival time, dose: 500.0 mg/kg/injection, schedule: Q01DX009 (ip), vehicle: water) is reported as 5 of 8, the survivor count (T/C endpoint: median survival time, dose: 600.0 mg/kg/injection, schedule: Q04DX003 (ip), vehicle: water) is reported as 2 of 8 and the survivor count (T/C endpoint: median survival time, dose: 1000.0 mg/kg/injection, schedule: Q04DX003 (ip), vehicle: water) is reported as 1 of 8.
With C/C(=N\OC(=O)Nc1ccccc1)c1ccccc1 the survivor count (T/C endpoint: mean survival time, dose: 200.0 mg/kg/injection, schedule: Q01DX001 (ip), vehicle: carboxymethylcellulose (CMC)) was 4 of 4.
For Nn1cnnc1, the survivor count [7] was 6 of 6 and the survivor count [8] was 4 of 6.
With Clc1ccc2c(Cl)cc(Cl)nc2c1 the survivor count (T/C endpoint: mean survival time, dose: 150.0 mg/kg/injection, schedule: Q01DX001 (ip), vehicle: saline) was 6 of 6.
In the case of CNC(=O)NNC(=O)c1ccc(Cl)cc1, the survivor count [10] is reported as 3 of 6.
In the case of CC(C)(C)[O][Pb]([c]1ccccc1)([c]1ccccc1)[c]1ccccc1, the survivor count (T/C endpoint: mean survival time, dose: 3.12 mg/kg/injection, schedule: Q01DX009 (ip), vehicle: saline with Tween-80) is reported as 6 of 6, the survivor count (T/C endpoint: mean survival time, dose: 6.25 mg/kg/injection, schedule: Q01DX009 (ip), vehicle: saline with Tween-80) is reported as 1 of 6 and the survivor count [10] is reported as 0 of 6. The survivor count [2] was 0 of 6 and the survivor count [3] was 0 of 6.
ONC(=NCc1ccccc1)c1ccccc1 was tested, and the survivor count [11] was 1 of 4.
O=C(C[n+]1ccc2ccccc2c1)c1cccs1 was tested, and the T/C (T/C endpoint: mean survival time, dose: 100.0 mg/kg/injection, schedule: Q04DX002 (ip), vehicle: Klucel (hydroxypropylcellulose) (HPC)) was 125 % of control [2 of 3 alive] and the survivor count (T/C endpoint: mean survival time, dose: 200.0 mg/kg/injection, schedule: Q04DX002 (ip), vehicle: Klucel (hydroxypropylcellulose) (HPC)) was 0 of 3.
For CN(C)CCCN=Cc1cc(Cl)ccc1O.CN(C)CCCN=Cc1cc(Cl)ccc1O.[Ni+2], the survivor count (T/C endpoint: mean survival time, dose: 100.0 mg/kg/injection, schedule: Q04DX003 (ip), vehicle: saline with Tween-80) was 3 of 6, the survivor count [12] was 1 of 6 and the survivor count [13] was 0 of 6.
In the case of O=C1NC(=O)C(=Cc2csc3ccccc23)C(=O)N1, the survivor count [11] is reported as 2 of 4.
With COc1ccc([P+](=S)SS[P+](=S)c2ccc(OC)cc2)cc1 (stereo not drawn) the survivor count (T/C endpoint: mean survival time, dose: 400.0 mg/kg/injection, schedule: Q04DX002 (ip), vehicle: saline with Tween-80) was 1 of 3.
In the case of CC1(C)CCC2=C(O1)c1ccccc1C(=O)C2=O, the T/C (T/C endpoint: mean survival time, dose: 200.0 mg/kg/injection, schedule: Q01DX001 (ip), vehicle: Klucel (hydroxypropylcellulose) (HPC)) is reported as 136 % of control [5 of 6 alive] and the survivor count (T/C endpoint: mean survival time, dose: 400.0 mg/kg/injection, schedule: Q01DX001 (ip), vehicle: Klucel (hydroxypropylcellulose) (HPC)) is reported as 0 of 6.
In the case of C#CCSC(C)C, the T/C [4] is reported as 136 % of control.
For CC1=NC2(CCCCC2)C[N+]1(Cc1ccccc1)Cc1ccccc1, the survivor count [12] was 6 of 6 and the survivor count [13] was 3 of 6.
CC1(C)N=C(N)N=C(N)N1c1ccccc1 was tested, and the survivor count [1] was 2 of 6, the survivor count [14] was 2 of 6 and the survivor count [15] was 0 of 6. For the same compound, the survivor count [16] was 0 of 6.
With CN=C(NCc1ccccc1)c1ccc(NC(=O)c2ccc(C(=O)Nc3ccc(C(=NC)NCc4ccccc4)cc3)cc2)cc1 the survivor count (T/C endpoint: mean survival time, dose: 15.0 mg/kg/injection, schedule: Q01DX Z (ip), vehicle: methylcellulose (MC)) was 0 of 6, the survivor count (T/C endpoint: mean survival time, dose: 30.0 mg/kg/injection, schedule: Q01DX Z (ip), vehicle: methylcellulose (MC)) was 0 of 6 and the survivor count (T/C endpoint: mean survival time, dose: 60.0 mg/kg/injection, schedule: Q01DX Z (ip), vehicle: methylcellulose (MC)) was 0 of 6. For the same compound, the survivor count (T/C endpoint: mean survival time, dose: 120.0 mg/kg/injection, schedule: Q01DX Z (ip), vehicle: methylcellulose (MC)) was 0 of 6.
In the case of CC1CC([P+](c2ccccc2)(c2ccccc2)c2ccccc2)=NN1 (stereo not drawn), the survivor count [14] is reported as 4 of 6, the survivor count [15] is reported as 0 of 6 and the survivor count [16] is reported as 0 of 6.
S=C(Nc1ccccc1)Nc1cccc2ccccc12 was tested, and the survivor count [9] was 3 of 3.
With CC(=O)OCC1OC(n2ccc3c(=O)[nH]cnc32)C(OC(C)=O)C1OC(C)=O (stereo not drawn) the survivor count (T/C endpoint: mean survival time, dose: 100.0 mg/kg/injection, schedule: Q01DX015 (ip), vehicle: carboxymethylcellulose (CMC)) was 5 of 6.
For CC(=O)CC(OC(=O)c1cc([N+](=O)[O-])cc([N+](=O)[O-])c1)(C(F)(F)F)C(F)(F)F, the survivor count [6] was 1 of 6.
